Data reported in patent publication US10329476B2, “Non-regulated synthetic acid compositions for use as alternatives to conventional acids in the oil and gas industry” (FLUID ENERGY GROUP LTD., priority 2015, dated 2019).

Legend:
[1] = Corrosion testing on N80 coupons, MSA-Urea vs Example 1; settings: 90° C., 50% concentration
[2] = Corrosion testing on chromed stainless steel coupons; settings: 55° C., 72 hours
[3] = Corrosion testing on Chrome 13 coupons; settings: 55° C., 72 hours

| Structure (SMILES) | Corrosion Mils/yr ([1]; run time 6 hours) [Mils/yr] | Corrosion lb/ft^2 ([1]; run time 6 hours) [lb/ft^2] | Corrosion mm/year ([1]; run time 6 hours) [mm/year] | Loss wt. ([1]; run time 6 hours) [g] | Corrosion Mils/yr ([1]; run time 24 hours) [Mils/yr] | Corrosion lb/ft^2 ([1]; run time 24 hours) [lb/ft^2] | Corrosion mm/year ([1]; run time 24 hours) [mm/year] | Loss wt. ([1]; run time 24 hours) [g] | Corrosion Lb/ft2 [2] [Lb/ft2] | Loss weight [2] [g] | Corrosion Lb/ft2 [3] [Lb/ft2] | Loss weight [3] [g] |
| --- | --- | --- | --- | --- | --- | --- | --- | --- | --- | --- | --- | --- |
| CS(=O)(=O)O [MSA-No Urea, Methanesulphonic acid] | 13348.09 | 0.374 | 339.041 | 5.279 | 3435.63 | 0.385 | 87.265 | 5.435 | – | – | – | – |
| CS(=O)(=O)O [MSA (70%), Methanesulfonic acid] | – | – | – | – | – | – | – | – | 0.043 | 0.693 | 0.035 | 0.534 |
